Reference: PubChem BioAssay AID493014 (National Center for Advancing Translational Sciences (NCATS), 2011)
The list shows a part of the results. These are further read-outs of the screen, such as a control signal, another cell line or another target. No call is given for them. Compounds called inactive in the main read-out are mostly missing here. Words in brackets tell the shape of the fitted curve; partial curves, single points and poor fits give uncertain potencies.

Experiment: qHTS Assay to Find Inhibitors of Chronic Active B-Cell Receptor Signaling
Conditions: ABC-DLBCL IkBa-CBG/CBR reporter, luminescence ratio (green luciferase fused to IkBa over red control in TMD8 lymphoma cells), 4 h
Summary of the method: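 TMD8 human ABC-DLBCL cells with doxycycline-inducible IκBα–green luciferase fusion and unfused red luciferase, in 0.5% FBS medium; compounds up to 46 uM, 4 h at 37C. Green/red luminescence ratio, filter-overlap corrected, fitted to concentration-response curves.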

[1] = measured here: CBR red luminescence, cell number
[2] = measured here: IkBa-CBG green luminescence

With `O=C(N/N=C\c1ccc(CNS(=O)(=O)c2ccccc2)o1)C(=O)Nc1ccc(F)cc1` as the molecule, how does the AC50 [1] read?
The AC50 was 8.2 µM [falling, partial curve].

Which AC50 [1] does the source give for `CCCCc1cc(=O)oc2cc(C)cc(OC(C)C(=O)NCc3cccnc3)c12` (stereo unspecified) here?
Its AC50 is 25.1 µM [falling, single point].

Which AC50 [1] does the source give for `O=C(N/N=C/c1ccc(Br)s1)c1ccco1` here?
Its AC50 is 17.8 µM [falling, partial curve].

For `O=C(CSC1=NS(=O)(=O)c2cc(F)ccc2N1)Nc1ccccc1`, which AC50 [1] is on record?
The AC50 was 14.6 µM [falling, single point].

For `C=CCOc1ccc2c(c1)C(=NO)c1cc(OCC=C)ccc1-2`, which AC50 [1] is on record?
The AC50 was 5.17 µM [rising, partial curve, poor fit].

For `COc1ccc(CN(C)C(=O)CC(c2ccccc2)c2ccccc2)cc1`, which AC50 [1] is on record?
The AC50 was 35.5 µM [falling, single point].

Which AC50 [1] does the source give for `C=CCNc1nc(C(=O)OC(C)C(=O)c2ccc(C)cc2)cs1` (stereo unspecified) here?
Its AC50 is 9.2 µM [rising, partial curve, poor fit].

For `CC(C)c1ccc(S(=O)(=O)N2CCN(C(=O)CN3C(=O)c4ccccc4C3=O)CC2)cc1`, which AC50 [1] is on record?
The AC50 was 2.91 µM [rising, partial curve, poor fit].

For `CCOc1ccc(C2C(=O)N(C3CCCCCC3)CC(=O)N2CCc2ccc(Cl)cc2)cc1OC` (stereo unspecified), which AC50 [1] is on record?
The AC50 was 0.562 µM [rising, full curve, poor fit].

Which AC50 [1] does the source give for `COc1ccc2[nH]cc(CCn3ccc(O)c(C/C=C/c4ccccc4)c3=O)c2c1` here?
The AC50 was 22.4 µM [falling, partial curve, poor fit].

With `COc1ccc(-c2cc(C(=O)N3CCCc4ccccc43)no2)cc1` as the molecule, how does the AC50 [1] read?
The AC50 was 22.4 µM [falling, single point].

Which AC50 [1] does the source give for `CCOC(=O)c1c(N)nn(C(=O)CC)c1-c1ccccc1` here?
The AC50 was 11.6 µM [falling, partial curve, poor fit].

With `COc1ccc(/C=C/C(=O)c2cc(F)ccc2OC(=O)c2ccc(OC)c(OC)c2)cc1OC` as the molecule, how does the AC50 [2] read?
The AC50 was 16.4 µM [falling, partial curve].

For `O=C(Cn1nc(-c2cccc(Cl)c2)ccc1=O)NCC1COCCO1` (stereo unspecified), which AC50 [1] is on record?
The AC50 was 2.31 µM [falling, partial curve, poor fit].

Which AC50 [1] does the source give for `Cc1ccccc1NC(=O)C(=O)Nc1ccccc1C` here?
The AC50 was 0.126 µM [falling, full curve].

For `CCCc1ccc(-c2ccc(/C=C/C(=O)O)cc2)nc1`, which AC50 [1] is on record?
The AC50 was 0.13 µM [falling, full curve].

With `Cc1sc2ncnc(N3CCC(C(=O)Nc4ccc(Cl)cc4Cl)CC3)c2c1C` as the molecule, how does the AC50 [1] read?
Its AC50 is 4.61 µM [rising, full curve].

Which AC50 [1] does the source give for `CCN(CC)C(=O)CSc1nnc(-c2ccccc2)o1` here?
Its AC50 is 23.1 µM [falling, partial curve, poor fit].

Which AC50 [1] does the source give for `CCOc1ccc(N2C(=O)C3C(C2=O)C3(c2ccccc2)c2ccccc2)cc1` (stereo unspecified) here?
The AC50 was 4.11 µM [falling, partial curve, poor fit].

For `CCOC(=O)N1CCC(NC(=S)Nc2ccc3nc(N4CCN(C)CC4)cc(C)c3c2)CC1`, which AC50 [1] is on record?
Its AC50 is 25.1 µM [falling, single point].

For `Cc1cc(C)cc(NC(=O)c2cc(C)n(Cc3cccs3)c2C)c1`, which AC50 [1] is on record?
The AC50 was 6.31 µM [falling, full curve, poor fit].

With `O=c1cc(-c2ccc([N+](=O)[O-])cc2)nc2cc(-c3ccc(F)cc3)[nH]n12` as the molecule, how does the AC50 [1] read?
The AC50 was 1.84 µM [falling, full curve].

For `O=C(CSc1ccc(Cl)cc1)Nc1ccccc1N1CCN(C(=O)c2ccccc2)CC1`, which AC50 [1] is on record?
Its AC50 is 7.08 µM [falling, partial curve, poor fit].

Which AC50 [1] does the source give for `CC[C@]12c3[nH]c4cc(CCC(=O)N(C)C)ccc4c3CCN1C(=O)[C@@H](CC(=O)NC(C)(C)C)C[C@@H]2C(=O)N1CCN(C(=O)C2CC2)CC1` here?
The AC50 was 0.82 µM [rising, full curve, poor fit].

For `CCOc1ccccc1N(C(=O)CNC(=O)c1ccco1)C(C(=O)NC1CCCC1)c1cccnc1` (stereo unspecified), which AC50 [1] is on record?
Its AC50 is 15.8 µM [falling, single point].

For `O=C(Nc1ccc2c(c1)OCO2)c1cc(-c2cccc(O)c2)on1`, which AC50 [1] is on record?
Its AC50 is 15.8 µM [falling, partial curve, poor fit].

Which AC50 [1] does the source give for `O=[N+]([O-])c1ccccc1S(=O)(=O)Nc1cccc(-c2ccc(N3CCOCC3)nn2)c1` here?
The AC50 was 29.1 µM [rising, single point].

With `CCSc1nsc(NC(=O)Nc2ccccc2F)n1` as the molecule, how does the AC50 [1] read?
The AC50 was 1.41 µM [falling, full curve, poor fit].

With `COc1ccc2c(c1)CCCC21NC(=O)NC1=O` (stereo unspecified) as the molecule, how does the AC50 [1] read?
The AC50 was 2.51 µM [rising, full curve, poor fit].

For `O=C(NC(=S)Nc1cccc2c(O)cccc12)c1cccc(Br)c1`, which AC50 [1] is on record?
Its AC50 is 11.2 µM [falling, partial curve].

For `Clc1ccccc1C(c1ccccc1)(c1ccccc1)n1ccnc1`, which AC50 [1] is on record?
Its AC50 is 0.794 µM [falling, partial curve, poor fit].

For `COc1ccc(OC)c(/C=C/c2nc3ccccc3[nH]c2=O)c1`, which AC50 [1] is on record?
Its AC50 is 22.4 µM [falling, single point].

For `COc1ccc(OC)c(NC(=O)c2ccccc2NC(=O)c2ccco2)c1`, which AC50 [1] is on record?
The AC50 was 12.6 µM [falling, partial curve, poor fit].

For `CCC(C(=O)c1ccccc1)N(C(=O)c1ccccc1Cl)N1C(=O)C2C3C=CC(C3)C2C1=O` (stereo unspecified), which AC50 [1] is on record?
Its AC50 is 17.8 µM [falling, partial curve, poor fit].

For `NS(=O)(=O)c1ccc(-c2ccc(/C=N/Nc3ccc(C(=O)O)cc3)o2)cc1`, which AC50 [1] is on record?
The AC50 was 3.98 µM [falling, partial curve, poor fit].

Which AC50 [1] does the source give for `CCOc1cc2c(Cl)ncnc2c(OCC)c1OCC` here?
The AC50 was 35.5 µM [falling, single point].

What does the source list for `Cc1oc(-c2ccccc2)cc1C(=O)Nc1ccccc1`?
AC50 [1]: 11.6 µM [rising, partial curve, poor fit]; AC50 [2]: 1.64 µM [rising, full curve, poor fit]

With `CC(C)CN(CCCNC(=O)CN1C(=O)COc2ccc(S(=O)(=O)N3CCOCC3)cc21)CC(C)C` as the molecule, how does the AC50 [1] read?
Its AC50 is 6.31 µM [rising, single point].

And the AC50 [2]?
The AC50 was 5.62 µM [falling, single point].

For `CC(=O)c1ccc(NC(=O)c2cnn3ccccc23)cc1`, which AC50 [1] is on record?
Its AC50 is 14.6 µM [falling, partial curve, poor fit].

Which AC50 [1] does the source give for `Clc1cccc(-c2nnc(-c3ccno3)o2)c1` here?
Its AC50 is 2.82 µM [rising, partial curve, poor fit].

What does the source list for `FC(F)(F)c1nnc2ccc(Cl)nn12`?
AC50 [1]: 14.1 µM [rising, partial curve, poor fit]; AC50 [2]: 35.5 µM [falling, partial curve, poor fit]

Which AC50 [1] does the source give for `Cc1c(O)c(CN2CCCC2)cc2c3c(c(=O)oc12)CCC3` here?
The AC50 was 22.4 µM [falling, partial curve, poor fit].

With `Cc1cc(C)n(-c2nc3ccccc3c(=O)n2OCC#N)n1` as the molecule, how does the AC50 [1] read?
The AC50 was 35.5 µM [falling, single point].

And the AC50 [2]?
Its AC50 is 10 µM [falling, partial curve].

Which AC50 [1] does the source give for `CC(C)CNC(=O)C(=O)N/N=C/c1cccs1` here?
The AC50 was 11.2 µM [falling, single point].

Which AC50 [1] does the source give for `Cc1ccc(/C=N/NC(=O)C2=NNC(c3ccccc3)(c3ccccc3)C2)c(O)c1` here?
The AC50 was 14.6 µM [falling, partial curve].

For `COc1ccc(/C=C/C(=O)NC2CCCCCCC2)cc1S(=O)(=O)N1CCOCC1`, which AC50 [1] is on record?
Its AC50 is 2.59 µM [rising, full curve, poor fit].

With `CC(C)CNC(=O)C(=O)Nc1ccc(N(C)C)cc1` as the molecule, how does the AC50 [1] read?
Its AC50 is 7.31 µM [falling, partial curve].

With `COc1cc(O)cc2occ(-c3ccc(O)cc3)c(=O)c12` as the molecule, how does the AC50 [1] read?
Its AC50 is 6.31 µM [falling, partial curve].

Which AC50 [1] does the source give for `O=C(Nc1ccc(-c2cn3ccsc3n2)cc1)C1CCCC1` here?
Its AC50 is 10 µM [falling, partial curve].

Which AC50 [1] does the source give for `Cc1ccc(N2NC(=O)/C(=C/c3ccc(-c4ccc(Cl)c(C(=O)O)c4)o3)C2=O)cc1` here?
The AC50 was 10 µM [falling, partial curve, poor fit].

With `NNC(=O)c1ccc(NS(=O)(=O)c2ccc(Br)cc2)cc1` as the molecule, how does the AC50 [1] read?
The AC50 was 14.1 µM [falling, partial curve].

For `O=C(Nc1cccc2cccnc12)c1ccc(Br)o1`, which AC50 [1] is on record?
Its AC50 is 7.31 µM [rising, partial curve, poor fit].

With `O=C(NCCOc1ccc(F)cc1)c1ccccc1SCc1ccccc1` as the molecule, how does the AC50 [1] read?
The AC50 was 29.1 µM [falling, single point].

Which AC50 [1] does the source give for `COc1ccc(C(C)n2c(C)c3c(C)nnc(C)c3c2C)cc1` (stereo unspecified) here?
The AC50 was 35.5 µM [falling, single point].

With `Cc1ccc2nc(Nc3ccc(Cl)cc3)c3nncn3c2c1` as the molecule, how does the AC50 [1] read?
Its AC50 is 0.282 µM [rising, full curve, poor fit].

Which AC50 [1] does the source give for `CC(C)Cc1nnc(NC(=O)c2ccc([N+](=O)[O-])cc2)s1` here?
Its AC50 is 3.98 µM [falling, partial curve].

With `Cc1nn(-c2ccccc2)c2sc(C(=O)n3cccn3)cc12` as the molecule, how does the AC50 [1] read?
Its AC50 is 0.0891 µM [falling, full curve, poor fit].

Which AC50 [1] does the source give for `C=CCOC(=O)c1cn(CC)c2nc(C)ccc2c1=O` here?
The AC50 was 5.62 µM [falling, full curve, poor fit].

What about the AC50 [2] of the same molecule?
The AC50 was 12.6 µM [rising, partial curve, poor fit].

With `O=C(Nc1nc2ccccc2s1)C1=NN(c2ccccc2)C(=O)CC1` as the molecule, how does the AC50 [1] read?
Its AC50 is 6.51 µM [falling, partial curve].

For `CCSc1nc2c([nH]c3ccccc32)c(=O)n1C`, which AC50 [1] is on record?
The AC50 was 0.411 µM [falling, full curve].

For `COc1ccc(N2CCN(C(=O)c3cc(C4CC4)nn3-c3ccccc3)CC2)cc1`, which AC50 [1] is on record?
The AC50 was 29.1 µM [rising, single point].
